Experimental data taken from ChEMBL document CHEMBL1121388, “Analgesic narcotic antagonists. 2. 8-Alkymorphinan-6-ones” (J Med Chem, 1980).

Tested on: Mus musculus
Assay: The effective dose was measured by using mouse writhing assay after the compound administered subcutaneously.
Assay type: functional
Details: sc
Outline: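 Analgesia in the mouse writhing test induced by acetic acid, with compound given subcutaneously. Salts were dissolved in distilled H₂O; free bases were dissolved by dropwise 1 N HCl and then diluted.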

Question: `CN1CC[C@]23c4c5ccc(O)c4O[C@H]2[C@@H](O)C=C[C@H]3[C@H]1C5` [MORPHINE] was tested. Which ED50 did it give?
Answer: 2.1 µmol/kg
